Measurements taken from patent publication US20130338077A1 (INDIANA UNIVERSITY RESEARCH AND TECHNOLOGY, published 2013).
Results are given in words; binding and its absence hold for the method and conditions named. Some results given as binding are weak or reduced against the parent protein; the word gives no strength.

The chains behind the UniProt entries cited, without tags or fusion partners.
UniProt Q04206: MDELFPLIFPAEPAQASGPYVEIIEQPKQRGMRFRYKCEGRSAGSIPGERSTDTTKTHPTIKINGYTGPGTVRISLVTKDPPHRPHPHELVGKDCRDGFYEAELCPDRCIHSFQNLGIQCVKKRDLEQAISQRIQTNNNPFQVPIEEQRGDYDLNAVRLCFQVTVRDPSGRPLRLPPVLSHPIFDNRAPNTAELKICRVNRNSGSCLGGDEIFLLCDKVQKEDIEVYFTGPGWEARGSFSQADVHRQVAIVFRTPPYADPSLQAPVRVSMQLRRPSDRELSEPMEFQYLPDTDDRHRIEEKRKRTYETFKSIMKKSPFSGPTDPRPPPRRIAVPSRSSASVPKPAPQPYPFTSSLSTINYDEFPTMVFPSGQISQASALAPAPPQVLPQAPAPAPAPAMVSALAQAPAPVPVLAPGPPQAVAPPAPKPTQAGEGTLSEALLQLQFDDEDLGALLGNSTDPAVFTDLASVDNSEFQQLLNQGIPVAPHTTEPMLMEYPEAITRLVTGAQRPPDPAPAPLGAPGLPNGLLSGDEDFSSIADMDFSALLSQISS

Assays:
[1] = molecular target: recombinant human p65 protein, full-length, with DDK (r-p65:DDK) (human) (UniProt Q04206); assay: Scatchard plot of the ELISA data for GILZ-P and r-p65
[2] = molecular target: recombinant human p65 protein, full-length, with DDK (r-p65:DDK) (human) (UniProt Q04206); assay: kinetic ELISA: plate-bound GILZ-P probed with r-p65, velocity as mean optical density/min
[3] = molecular target: recombinant human p65 protein, full-length, with DDK (r-p65:DDK) (human) (UniProt Q04206); assay: ELISA: plates coated with falling concentrations of GILZ-P, probed with 40 uM r-p65:DDK, detected with anti-DDK

Measured: binding

CLSPEEPAPESPQVPEAPGGSAV (amino terminal acetylation; C-terminal peptide amide) [GILZ-peptide (GILZ-P), synthetic peptide from the carboxy terminus of GILZ]
binds: all assays above
